For 38 compounds, cell number change and AC50 results are on record in PubChem BioAssay AID2685 (National Center for Advancing Translational Sciences (NCATS), 2010).

The nature of the assay: qHTS Assay for Lipid Storage Modulators in Drosophila S3 Cells.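 For cell number change: cells counted by Cell Tracker Red CMTPX staining in the red channel.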 Conditions: BODIPY lipid droplet fluorescence, 18-24 h; for cell number change: measured here: cell count max response, cells fed with added oleic acid. The essentials:
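Drosophila S3 cells loaded with oleic acid (400 uM, as added) and compounds at several concentrations; lipid droplets imaged by 488-nm laser-scanning cytometry, 500–530 nm intensity and object ratio to cell channel. Percent activity normalized to 20 uM Triacsin C.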

Setting [1] is: measured here: cell number channel AC50, cells fed with added oleic acid.
The mark [2] stands for this setting: measured here: lipid fluorescence (Fed channel) AC50, cells fed with added oleic acid.

Each structure is given as a SMILES string. Values joined by “and” are separate entries in the source; they are usually repeats but may differ in a detail not shown here. Equal values may be shown once. Some of the results follow. Further columns of the screen follow, without active or inactive calls. The list favours compounds with an active or inconclusive main result. The note in brackets gives the kind of curve behind each potency; many fits are weak.

Take `Cc1ccc(OCC(=O)Nc2ccc(Cl)cc2C(=O)c2ccccc2)cc1`: the cell number change is 29.6%. Besides, the AC50 under setting [1] was 0.461 µM [falling, single point].

As to `OCCNc1c2c(nc3ccccc13)CCCC2`, the cell number change worked out at 0.612%. The AC50 under setting [2] was 29.1 µM [falling, single point].

With `C[C@]12CC[C@H](OS(=O)(=O)O)CC1=CC[C@@H]1[C@@H]2CC[C@]2(C)C(=O)CC[C@@H]12`, the cell number change was -51.1%. Also, under setting [1], the AC50 was 29.1 µM [falling, single point]. Also, the AC50 under setting [2] was 116 nM [rising, full curve, poor fit] and 29.1 µM [falling, single point].

Consider `Cc1csc(NC(=O)CCn2c(=O)oc3ccc(Cl)cc32)n1`, for which the AC50 under setting [1] is 0.92 µM [falling, full curve].

As for `O=C(CN1CCCC1)Nc1ccc(Cl)cc1C(=O)c1ccccc1`, the AC50 was 5.8 µM [falling, single point] under setting [1] and 6.51 µM [falling, single point] under setting [2].

Take `O=C(Nc1ccccc1)OC1CN=C(N[N+](=O)[O-])NC1` (stereo not drawn): the cell number change is -42.1%. Under setting [1], the AC50 is 6.51 µM [falling, full curve, poor fit].

With `c1ccc2nc(N3CCNCC3)ccc2c1`, the cell number change was 9.43%. In addition, the AC50 under setting [2] was 0.517 µM [falling, single point].

On to `COc1ccc(-n2c(-c3ccc(C)cc3)nc3ccccc3c2=O)cc1`, for which the cell number change is -50.6%. The AC50 under setting [1] is 29.1 µM [falling, single point]. The AC50 under setting [2] is 29.1 µM [falling, single point].

As for `CC(C)c1ccc(N=Nc2c(O)[nH]c(=O)[nH]c2=O)cc1`, the cell number change is 11.8%. The AC50 under setting [2] is 0.92 µM [rising, full curve].

As for `CC(NC(=O)Cn1c(=O)oc2cc(S(=O)(=O)N3CCCC3)ccc21)c1ccccc1` (stereo not drawn), the AC50 under setting [1] is 11.6 µM [rising, partial curve, poor fit].

For the compound `Cc1cc(OCc2nn[nH]n2)c2c3c(c(=O)oc2c1)CCC3`, the cell number change is 37%. Under setting [1], the AC50 was 16.4 µM [rising, partial curve, poor fit].

On to `COC(=O)C1=C(c2ccc(-c3ccccc3)c(F)c2)C[C@@H]2CC[C@H]1N2C(=O)NCCc1ccccc1`, for which the cell number change was -32%. Also, the AC50 under setting [1] is 14.6 µM [falling, single point].

Regarding `CCOCCN1CCN(c2nnc3n2-c2ccc(Cl)cc2C(c2ccccc2Cl)=NC3)CC1`, the cell number change is -13.6%. Besides, under setting [2], the AC50 was 1.46 µM [rising, partial curve, poor fit].

`CNCCc1nc(N)n[nH]1`: the cell number change was -47.6%. For the same compound, under setting [1], the AC50 is 23.1 µM [falling, partial curve].

As for `COC(=O)C1=C(c2c(C)noc2C)C[C@@H]2CC[C@H]1N2C(=O)N1CCCC1`, the cell number change is -17.9%. For the same compound, under setting [1], the AC50 is 0.092 µM [falling, full curve, poor fit].

For the compound `COc1ccccc1N1CCN(Cc2cc(C)c(C)cc2O)CC1`, the cell number change was found to be 9.1%.

Consider `O=C(c1cccs1)C1CN2CCC1CC2` (stereo not drawn), for which the cell number change was -97.9%. For the same compound, the concentration at half-maximal activity (AC50) under setting [2] is 2.59 µM [falling, full curve].

As for `CN(C)c1ccc(/C=C2/C(=O)NC(=O)N(CCc3ccc(F)cc3)C2=O)cc1`, the cell number change came out at 7.95%. Further, the AC50 under setting [2] was 0.82 µM [falling, full curve, poor fit].

Turning to `O=C1OCCC1NC1=NCCC1` (stereo not drawn), the cell number change is -136%. The AC50 under setting [1] is 23.1 µM [falling, partial curve]. In addition, the AC50 under setting [2] was 25.9 µM [falling, partial curve].

Consider `O=C1NC(=O)N(Cc2ccccc2)C(=O)/C1=C/c1cnn(-c2ccccc2)c1`, for which, under setting [2], the AC50 is 20.6 µM [rising, single point].

Consider `O=C(c1cc2c(s1)CCCCCC2)N1CCC2(CC1)OCCO2`, for which the cell number change is -65.3%. In addition, under setting [1], the AC50 is 18.4 µM [falling, partial curve].

As to `O=C1CN=C(c2ccccc2F)c2cc(Cl)ccc2N1`, the cell number change is -18.8%. Also, the AC50 under setting [2] was 32.6 µM [falling, single point].

As for `O=C(C1CCC(=O)N1Cc1ccc(F)cc1)N1CCC2(CC1)OCCO2` (stereo not drawn), the cell number change was 20.4%. For the same compound, the AC50 under setting [2] was 29.1 µM [rising, single point].

On to `Cc1ccc(OCC(=O)N2CCN(C3CCC(c4ccccc4)CC3)CC2)cc1` (stereo not drawn), for which the cell number change is -14.7%. In addition, under setting [2], the AC50 is 0.00731 µM [falling, full curve, poor fit].

Regarding `O=[N+]([O-])c1ccc(Cl)cc1`, the cell number change was found to be 3.95%. For the same compound, under setting [1], the AC50 was 0.651 µM [rising, partial curve]. Further, under setting [2], the AC50 was 5.17 µM [rising, single point].

On to `COc1ccccc1-n1c(Cc2ccccc2)nc2ccccc2c1=O`, for which the AC50 under setting [1] was 0.103 µM [rising, full curve, poor fit].

As to `Cc1ccc(S(=O)(=O)CC(=O)c2cc(C)c(OC(=O)N(C)C)c(C)c2)cc1`, the cell number change is -19.6%. In addition, under setting [2], the AC50 was 20.6 µM [falling, single point].

Take `C=C1C(=O)O[C@@H]2C[C@@H](C)[C@@H]3C=CC(=O)[C@@]3(C)[C@@H](O)[C@H]12`: the cell number change was -67.1%. The AC50 under setting [1] was 5.8 µM [falling, partial curve]. Further, under setting [2], the AC50 was 5.8 µM [falling, full curve].

Regarding `O=C(COC(=O)Cc1ccccc1)Nc1ccc(Cl)cn1`, the cell number change was 2.57%.

`CCN(C(=O)COC(=O)Cc1ccccc1)c1c(N)n(Cc2ccccc2)c(=O)[nH]c1=O`: the cell number change was -8.56%. In addition, the AC50 under setting [2] is 2.59 µM [falling, single point].

`COP(=O)(CC(=O)c1ccccc1)CC(=O)c1ccccc1`: the AC50 under setting [1] is 18.4 µM [falling, single point].

Turning to `CC[N+]12CCC(CC1)C(C(O)(c1ccccc1)c1ccccc1)C2` (stereo not drawn), the cell number change was 5.26%. The AC50 under setting [2] was 29.1 µM [rising, single point].

For the compound `Cc1cccc(C)c1N1CCN(c2c(C)cccc2C)CC1`, the cell number change was -2.46%.

As for `CC(=O)c1c(C)n(CC2CCCO2)c2ccc(O)cc12` (stereo not drawn), the cell number change was -6.88%. Also, the AC50 under setting [2] was 14.6 µM [rising, single point].

With `Cc1ccc(CCN2CC(C(=O)N3CCC4(CC3)OCCO4)CC2=O)cc1` (stereo not drawn), the cell number change is -7.89%. In addition, the AC50 under setting [2] is 1.64 µM [falling, partial curve].

Turning to `CCOP(=O)(OCC)C1(O)C(=O)Nc2ccc(Br)cc21` (stereo not drawn), the cell number change came to 14.8%. The AC50 under setting [2] is 3.26 µM [rising, full curve].

For `CNC(=O)ON(C(=O)NC)C1N(C)C(=S)SC1(C)C` (stereo not drawn), the cell number change was found to be 14.7%. Also, under setting [2], the AC50 was 6.51 µM [falling, single point].

For `COc1ccc(P2(=O)Nc3ccccc3N2)cc1`, the cell number change is -25.1%. In addition, under setting [2], the AC50 is 8.2 µM [falling, partial curve].
